Reference: the supplement of paper PMC10849652
This is one part of the list.

The chains behind the UniProt entries cited, without tags or fusion partners. Where a name states a change or a piece, a line headed by the entry shows the natural chain unless it says otherwise.
UniProt O95396: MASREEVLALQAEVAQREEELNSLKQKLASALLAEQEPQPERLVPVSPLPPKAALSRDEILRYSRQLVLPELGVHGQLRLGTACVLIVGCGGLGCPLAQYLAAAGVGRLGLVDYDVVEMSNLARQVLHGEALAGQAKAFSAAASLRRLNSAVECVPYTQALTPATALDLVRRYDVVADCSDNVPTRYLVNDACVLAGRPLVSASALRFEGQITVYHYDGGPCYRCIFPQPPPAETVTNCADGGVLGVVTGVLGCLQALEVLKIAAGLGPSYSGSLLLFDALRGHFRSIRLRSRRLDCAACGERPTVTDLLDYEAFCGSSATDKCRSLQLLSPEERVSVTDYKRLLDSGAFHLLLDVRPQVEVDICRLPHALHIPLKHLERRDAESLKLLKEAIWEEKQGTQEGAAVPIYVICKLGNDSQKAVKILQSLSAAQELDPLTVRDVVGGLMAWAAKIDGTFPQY
UniProt Q9Y5U8: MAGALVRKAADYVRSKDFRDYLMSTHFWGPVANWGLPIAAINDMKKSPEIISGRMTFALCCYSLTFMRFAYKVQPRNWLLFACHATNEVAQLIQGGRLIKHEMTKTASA
UniProt Q8N344: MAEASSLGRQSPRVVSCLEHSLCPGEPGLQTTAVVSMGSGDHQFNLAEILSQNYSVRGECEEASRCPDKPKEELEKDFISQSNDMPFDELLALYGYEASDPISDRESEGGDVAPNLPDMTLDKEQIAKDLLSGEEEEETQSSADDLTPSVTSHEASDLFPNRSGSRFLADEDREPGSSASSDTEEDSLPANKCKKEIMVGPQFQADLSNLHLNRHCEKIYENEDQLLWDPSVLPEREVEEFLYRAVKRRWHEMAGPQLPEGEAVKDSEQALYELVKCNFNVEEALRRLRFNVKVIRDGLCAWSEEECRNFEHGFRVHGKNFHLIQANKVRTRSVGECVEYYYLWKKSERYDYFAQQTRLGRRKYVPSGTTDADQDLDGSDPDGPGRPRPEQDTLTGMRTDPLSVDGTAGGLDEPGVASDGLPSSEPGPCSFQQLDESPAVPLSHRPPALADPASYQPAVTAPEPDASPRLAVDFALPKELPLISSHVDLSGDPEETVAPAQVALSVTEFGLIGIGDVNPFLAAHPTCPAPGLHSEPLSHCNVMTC
UniProt Q9UI43: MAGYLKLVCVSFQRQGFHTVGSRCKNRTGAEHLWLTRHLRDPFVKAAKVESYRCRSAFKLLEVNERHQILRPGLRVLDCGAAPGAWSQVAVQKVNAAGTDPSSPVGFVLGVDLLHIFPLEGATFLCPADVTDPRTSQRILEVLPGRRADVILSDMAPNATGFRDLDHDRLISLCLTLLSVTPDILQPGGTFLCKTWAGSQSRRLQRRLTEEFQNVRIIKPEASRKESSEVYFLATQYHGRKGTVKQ
UniProt P08473: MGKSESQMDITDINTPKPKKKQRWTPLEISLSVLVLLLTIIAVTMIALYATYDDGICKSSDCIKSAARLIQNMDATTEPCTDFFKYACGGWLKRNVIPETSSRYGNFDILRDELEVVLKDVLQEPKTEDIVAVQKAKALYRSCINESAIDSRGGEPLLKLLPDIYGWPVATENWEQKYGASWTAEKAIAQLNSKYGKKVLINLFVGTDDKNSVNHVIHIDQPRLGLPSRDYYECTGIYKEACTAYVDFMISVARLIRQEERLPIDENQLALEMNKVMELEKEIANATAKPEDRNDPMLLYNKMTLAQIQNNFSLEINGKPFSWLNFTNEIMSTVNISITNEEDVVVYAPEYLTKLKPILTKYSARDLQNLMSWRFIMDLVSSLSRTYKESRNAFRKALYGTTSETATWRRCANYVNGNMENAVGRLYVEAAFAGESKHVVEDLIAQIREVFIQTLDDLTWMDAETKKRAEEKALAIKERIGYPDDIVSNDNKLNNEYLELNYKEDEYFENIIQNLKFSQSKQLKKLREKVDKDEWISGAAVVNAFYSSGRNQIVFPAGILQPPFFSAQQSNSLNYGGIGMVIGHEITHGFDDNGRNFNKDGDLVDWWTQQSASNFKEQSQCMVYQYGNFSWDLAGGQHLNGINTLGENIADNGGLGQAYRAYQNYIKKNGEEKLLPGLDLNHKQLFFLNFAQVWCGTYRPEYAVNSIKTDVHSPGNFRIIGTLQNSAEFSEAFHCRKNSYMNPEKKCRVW
UniProt Q8TDZ2: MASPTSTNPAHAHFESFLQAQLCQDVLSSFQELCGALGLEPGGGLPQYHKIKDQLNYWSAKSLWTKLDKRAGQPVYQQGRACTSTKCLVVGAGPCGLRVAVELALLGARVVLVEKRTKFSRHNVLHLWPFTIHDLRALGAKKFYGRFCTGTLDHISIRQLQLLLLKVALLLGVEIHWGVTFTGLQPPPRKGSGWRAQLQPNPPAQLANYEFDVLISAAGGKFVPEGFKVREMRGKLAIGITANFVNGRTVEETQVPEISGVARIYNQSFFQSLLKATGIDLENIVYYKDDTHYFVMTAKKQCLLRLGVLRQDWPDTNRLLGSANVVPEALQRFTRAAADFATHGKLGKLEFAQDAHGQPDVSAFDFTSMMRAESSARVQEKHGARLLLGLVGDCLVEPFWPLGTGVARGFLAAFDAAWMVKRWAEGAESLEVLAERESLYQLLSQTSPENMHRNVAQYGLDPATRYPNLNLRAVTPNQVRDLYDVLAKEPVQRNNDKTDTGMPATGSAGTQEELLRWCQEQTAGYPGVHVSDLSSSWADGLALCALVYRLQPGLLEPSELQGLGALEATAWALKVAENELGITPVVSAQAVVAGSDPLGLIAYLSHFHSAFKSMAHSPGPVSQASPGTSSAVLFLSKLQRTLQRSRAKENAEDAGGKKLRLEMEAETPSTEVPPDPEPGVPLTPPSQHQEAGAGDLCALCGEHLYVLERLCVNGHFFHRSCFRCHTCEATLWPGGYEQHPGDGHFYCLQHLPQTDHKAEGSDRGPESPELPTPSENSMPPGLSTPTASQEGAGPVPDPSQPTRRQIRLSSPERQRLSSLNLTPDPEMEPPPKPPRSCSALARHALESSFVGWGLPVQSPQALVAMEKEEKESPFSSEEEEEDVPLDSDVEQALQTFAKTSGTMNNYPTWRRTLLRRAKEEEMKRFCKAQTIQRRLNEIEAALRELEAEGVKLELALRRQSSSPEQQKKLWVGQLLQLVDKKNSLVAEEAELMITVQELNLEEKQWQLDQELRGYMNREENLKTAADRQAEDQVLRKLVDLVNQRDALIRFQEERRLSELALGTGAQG
UniProt Q8N3F8: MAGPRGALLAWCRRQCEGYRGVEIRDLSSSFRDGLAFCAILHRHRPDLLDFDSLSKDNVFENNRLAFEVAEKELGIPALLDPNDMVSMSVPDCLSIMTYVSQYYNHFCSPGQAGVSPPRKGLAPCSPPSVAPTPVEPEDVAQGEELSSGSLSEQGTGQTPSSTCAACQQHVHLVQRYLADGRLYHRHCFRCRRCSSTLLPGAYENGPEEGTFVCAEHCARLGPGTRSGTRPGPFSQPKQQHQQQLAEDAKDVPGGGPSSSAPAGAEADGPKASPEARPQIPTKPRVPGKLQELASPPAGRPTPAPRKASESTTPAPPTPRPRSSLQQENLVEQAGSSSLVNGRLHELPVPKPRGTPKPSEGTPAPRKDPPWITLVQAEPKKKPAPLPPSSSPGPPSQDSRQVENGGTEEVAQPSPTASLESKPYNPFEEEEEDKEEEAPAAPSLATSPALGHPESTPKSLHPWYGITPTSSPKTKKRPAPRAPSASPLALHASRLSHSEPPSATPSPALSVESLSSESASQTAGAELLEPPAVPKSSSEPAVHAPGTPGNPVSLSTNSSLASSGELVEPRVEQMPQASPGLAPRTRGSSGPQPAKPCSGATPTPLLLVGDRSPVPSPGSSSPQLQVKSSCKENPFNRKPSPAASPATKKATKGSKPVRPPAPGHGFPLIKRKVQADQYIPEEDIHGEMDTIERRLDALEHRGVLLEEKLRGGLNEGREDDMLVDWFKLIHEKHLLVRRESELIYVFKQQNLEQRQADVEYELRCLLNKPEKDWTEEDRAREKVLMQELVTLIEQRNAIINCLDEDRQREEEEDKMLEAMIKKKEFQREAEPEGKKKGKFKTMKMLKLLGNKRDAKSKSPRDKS
UniProt Q9UJG1: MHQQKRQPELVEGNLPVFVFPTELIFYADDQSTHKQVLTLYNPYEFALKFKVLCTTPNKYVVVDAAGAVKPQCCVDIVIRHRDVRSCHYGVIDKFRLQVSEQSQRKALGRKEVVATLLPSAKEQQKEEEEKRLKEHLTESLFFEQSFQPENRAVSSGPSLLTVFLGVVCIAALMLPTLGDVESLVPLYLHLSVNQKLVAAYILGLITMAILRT
UniProt O94851, whole entry, looked up: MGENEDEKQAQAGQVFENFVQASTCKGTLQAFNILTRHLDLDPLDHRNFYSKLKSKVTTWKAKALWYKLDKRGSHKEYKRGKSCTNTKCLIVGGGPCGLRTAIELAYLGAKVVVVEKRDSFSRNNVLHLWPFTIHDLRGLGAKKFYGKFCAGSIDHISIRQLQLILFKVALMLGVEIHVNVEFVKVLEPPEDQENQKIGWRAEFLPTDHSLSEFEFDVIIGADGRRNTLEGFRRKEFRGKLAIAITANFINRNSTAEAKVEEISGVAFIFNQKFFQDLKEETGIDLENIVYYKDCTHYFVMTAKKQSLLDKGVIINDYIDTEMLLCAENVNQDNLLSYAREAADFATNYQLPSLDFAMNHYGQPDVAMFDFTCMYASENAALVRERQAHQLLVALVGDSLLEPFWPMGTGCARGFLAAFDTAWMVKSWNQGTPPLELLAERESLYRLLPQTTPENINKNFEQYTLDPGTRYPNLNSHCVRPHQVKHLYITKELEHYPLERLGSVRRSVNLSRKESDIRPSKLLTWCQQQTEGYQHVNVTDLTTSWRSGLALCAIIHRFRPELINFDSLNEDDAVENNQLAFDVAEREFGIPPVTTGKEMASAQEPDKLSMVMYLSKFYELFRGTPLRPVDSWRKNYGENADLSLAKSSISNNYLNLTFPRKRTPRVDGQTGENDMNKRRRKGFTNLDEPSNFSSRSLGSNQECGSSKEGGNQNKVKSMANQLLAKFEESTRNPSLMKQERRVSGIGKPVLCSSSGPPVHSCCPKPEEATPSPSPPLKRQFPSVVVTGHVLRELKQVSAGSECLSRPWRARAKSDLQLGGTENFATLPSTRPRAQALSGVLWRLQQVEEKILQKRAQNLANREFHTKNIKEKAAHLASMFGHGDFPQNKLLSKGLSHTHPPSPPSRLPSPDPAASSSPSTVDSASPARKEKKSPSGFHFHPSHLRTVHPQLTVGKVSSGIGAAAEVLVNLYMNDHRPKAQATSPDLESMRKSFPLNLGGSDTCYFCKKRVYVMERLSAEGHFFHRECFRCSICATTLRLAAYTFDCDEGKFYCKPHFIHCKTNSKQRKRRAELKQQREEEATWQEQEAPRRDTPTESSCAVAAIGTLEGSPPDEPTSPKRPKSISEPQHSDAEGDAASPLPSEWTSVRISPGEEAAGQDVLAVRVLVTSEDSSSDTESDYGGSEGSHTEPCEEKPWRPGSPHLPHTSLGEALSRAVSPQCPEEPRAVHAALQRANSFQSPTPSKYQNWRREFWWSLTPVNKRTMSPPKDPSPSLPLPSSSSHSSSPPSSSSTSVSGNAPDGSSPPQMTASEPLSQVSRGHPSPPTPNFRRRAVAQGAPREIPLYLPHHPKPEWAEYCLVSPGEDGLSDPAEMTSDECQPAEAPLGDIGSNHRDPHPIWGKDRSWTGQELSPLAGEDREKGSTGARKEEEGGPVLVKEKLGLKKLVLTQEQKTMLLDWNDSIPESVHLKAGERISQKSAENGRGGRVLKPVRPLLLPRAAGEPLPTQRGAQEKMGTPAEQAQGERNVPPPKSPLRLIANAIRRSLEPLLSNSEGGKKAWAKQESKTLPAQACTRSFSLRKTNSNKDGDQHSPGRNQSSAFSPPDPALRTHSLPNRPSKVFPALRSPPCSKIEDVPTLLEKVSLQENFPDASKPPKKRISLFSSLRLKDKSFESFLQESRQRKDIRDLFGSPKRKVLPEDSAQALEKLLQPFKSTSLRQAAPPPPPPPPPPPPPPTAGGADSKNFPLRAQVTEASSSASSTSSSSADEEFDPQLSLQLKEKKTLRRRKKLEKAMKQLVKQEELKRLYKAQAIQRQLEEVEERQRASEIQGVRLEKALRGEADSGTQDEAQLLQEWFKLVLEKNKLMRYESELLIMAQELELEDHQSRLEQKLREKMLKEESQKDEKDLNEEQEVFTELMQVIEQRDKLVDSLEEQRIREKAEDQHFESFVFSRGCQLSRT
UniProt Q29983, whole entry, looked up: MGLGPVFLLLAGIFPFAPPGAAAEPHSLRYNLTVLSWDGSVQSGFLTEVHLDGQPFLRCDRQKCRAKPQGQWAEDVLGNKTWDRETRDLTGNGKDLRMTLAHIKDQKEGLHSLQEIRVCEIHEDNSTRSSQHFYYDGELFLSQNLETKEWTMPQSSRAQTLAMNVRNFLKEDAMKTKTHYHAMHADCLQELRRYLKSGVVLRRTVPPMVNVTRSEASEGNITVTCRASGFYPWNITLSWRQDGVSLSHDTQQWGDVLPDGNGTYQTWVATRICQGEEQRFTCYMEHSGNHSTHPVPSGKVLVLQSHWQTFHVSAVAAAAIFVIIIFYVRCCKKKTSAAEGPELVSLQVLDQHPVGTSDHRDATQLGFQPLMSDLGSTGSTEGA

Key:
Experiment in all cases: log2 fold change, soluble protein after heating vs DMSO (PISA); higher = thermal stabilisation; K562 cells, 10 uM, 30 min; active = over 0.2 and 3.5 SD of the protein, either way, in both replicates (recomputed)
bafetinib = compound: Cc1ccc(NC(=O)c2ccc(CN3CC[C@H](N(C)C)C3)c(C(F)(F)F)c2)cc1Nc1nccc(-c2cncnc2)n1 [bafetinib]
Method in brief: (§1)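 Quantification of soluble protein used TMTpro 16plex LC-MS/MS, with channel sums equalised. Samples were the supernatant after 21,000xg for 90 min of pooled aliquots from K562 cells (2×10^6 cells/mL) treated with 10 μM compound for 30 min, heated for 3 min over 48°C-58°C, and extracted in PBS with 0.5% NP-40 at 4°C. Values, from duplicates, describe thermal stability against control samples on a log2 fold-change scale.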

nilotinib = compound: Cc1cn(-c2cc(NC(=O)c3ccc(C)c(Nc4nccc(-c5cccnc5)n4)c3)cc(C(F)(F)F)c2)cn1 [nilotinib]
Method in brief: as §1

[1] = compound: Cc1nc(Nc2n[nH]c3c2CN(C(=O)N[C@H](CN(C)C)c2ccccc2)C3(C)C)c2sccc2n1
Method in brief: as §1

dasatinib = compound: Cc1nc(Nc2ncc(C(=O)Nc3c(C)cccc3Cl)s2)cc(N2CCN(CCO)CC2)n1 [dasatinib]
Method in brief: as §1

[2] = compound: Cc1ncc(-c2ccnc(Nc3ccc(S(C)(=O)=O)cc3)n2)n1C(C)C
Method in brief: as §1

[3] = compound: Cn1cc(-c2ccc3c(c2)CCN3C(=O)Cc2cccc(C(F)(F)F)c2)c2c(N)ncnc21
Method in brief: as §1

[4] = compound: Cn1cc(-c2ccc3nnc(C(F)(F)c4ccc5ncccc5c4)n3n2)cn1
Method in brief: as §1

tipifarnib = compound: Cn1cncc1[C@@](N)(c1ccc(Cl)cc1)c1ccc2c(c1)c(-c1cccc(Cl)c1)cc(=O)n2C [tipifarnib]
Method in brief: as §1

mubritinib = compound: FC(F)(F)c1ccc(/C=C/c2nc(COc3ccc(CCCCn4ccnn4)cc3)co2)cc1 [mubritinib]
Method in brief: as §1

[5] = compound: NC(=O)Nc1cc(-c2cccc(F)c2)sc1C(=O)N[C@H]1CCCNC1
Method in brief: as §1

[6] = compound: NC(=O)c1cnc(N[C@@H]2CCCC[C@@H]2N)nc1Nc1cccc(-n2nccn2)c1
Method in brief: as §1

[7] = compound: NC1(c2ccc(-c3nc4ccn5c(=O)[nH]nc5c4cc3-c3ccccc3)cc2)CCC1
Method in brief: as §1

[8] = compound: NCC(=O)Nc1ccc(-n2nc(C(F)(F)F)cc2-c2ccc3c(ccc4ccccc43)c2)cc1
Method in brief: as §1

entinostat = compound: Nc1ccccc1NC(=O)c1ccc(CNC(=O)OCc2cccnc2)cc1 [entinostat]
Method in brief: as §1

citarinostat = compound: O=C(CCCCCCNC(=O)c1cnc(N(c2ccccc2)c2ccccc2Cl)nc1)NO [citarinostat]
Method in brief: as §1

silmitasertib = compound: O=C(O)c1ccc2c(c1)nc(Nc1cccc(Cl)c1)c1ccncc12 [silmitasertib]
Method in brief: as §1

[9] = compound: O=C1NC(=O)C(c2cnc3ccccn23)=C1c1cn2c3c(cc(F)cc13)CN(C(=O)N1CCCCC1)CC2
Method in brief: as §1

[10] = compound: c1cc(OCCN2CCCCC2)cc(-c2n[nH]c3ccc(-c4nnc[nH]4)cc23)c1
Method in brief: as §1

[11] = compound: Cc1cccc(CC(=O)N2CCc3c2ccc(-c2cn(C)c4ncnc(N)c24)c3F)n1
Method in brief: as §1

vorinostat = compound: O=C(CCCCCCC(=O)Nc1ccccc1)NO [vorinostat]
Method in brief: as §1

Measured: log2 fold change

MRM1 (UniProt Q6IN84)
inactive: bafetinib 0.191 | nilotinib 0.025 | [1] 0.061 | dasatinib 0.172 | [2] -0.044 | [3] -0.272 | [4] 0.009 | tipifarnib 0.151 | mubritinib -0.102 | [5] 0.037 | [6] -0.011 | [7] 0.188 | [8] 0.013 | entinostat -0.024 | citarinostat -0.085 | silmitasertib 0.118 | [9] 0.225 | [10] -0.064

MLKL (UniProt Q8NB16)
inactive: [11] 0.156 | [3] 0.047 | tipifarnib -0.208 | [5] -0.159 | [8] -0.015 | entinostat 0.052 | vorinostat 0.074 | citarinostat 0.006 | [9] 0.206 | [10] -0.083

MOB3B (UniProt Q86TA1)
inactive: bafetinib -0.023 | [11] 0.034 | nilotinib -0.168 | [1] -0.397 | [2] 0.032 | [3] 0.222 | tipifarnib 0.01 | mubritinib 0.109 | [6] -0.082 | [7] -0.288 | [8] -0.021 | vorinostat -0.049 | silmitasertib -0.023

MOCS3 (UniProt O95396)
inactive: bafetinib 0.036 | [11] -0.032 | nilotinib -0.102 | [1] -0.042 | [2] 0.037 | [3] -0.145 | tipifarnib -0.016 | mubritinib -0.147 | [5] -0.077 | [6] 0.1 | [7] 0.028 | [8] -0.162 | entinostat 0.039 | vorinostat 0.003 | silmitasertib -0.063 | [9] -0.048

MLLT10 (UniProt P55197)
inactive: bafetinib -0.055 | [11] 0.158 | [4] -0.337 | tipifarnib 0.271 | mubritinib 0.159 | [7] 0.004 | vorinostat 0.247 | silmitasertib -0.364 | [9] 0.081

MPC1 (UniProt Q9Y5U8)
inactive: bafetinib 0.127 | nilotinib -0.116 | [1] 0.005 | dasatinib -0.038 | [2] -0.021 | [3] 0.243 | [4] 0.035 | tipifarnib -0.177 | mubritinib -0.005 | [5] 0.202 | [6] 0.109 | [7] 0.037 | entinostat 0.045 | citarinostat -0.069 | silmitasertib -0.074 | [10] 0.422

MIER2 (UniProt Q8N344)
inactive: dasatinib 0.012 | [3] -0.12 | [6] 0.229 | [8] -0.113 | [9] 0.024

MRM2 (UniProt Q9UI43)
inactive: nilotinib -0.069 | [1] -0.049 | dasatinib -0.381 | [2] 0.043 | [3] 0.164 | tipifarnib -0.011 | [6] -0.202 | [8] -0.211

MME (UniProt P08473)
inactive: bafetinib -0.212 | dasatinib -0.325 | mubritinib 0.092 | [7] -0.036 | [8] -0.079 | citarinostat 0.062 | silmitasertib 0.235 | [10] 0.081

MMRN1 (UniProt Q13201)
inactive: dasatinib 0.062 | [4] -0.026 | [5] -0.124 | entinostat -0.08

MICAL1 isoform 4 (UniProt Q8TDZ2)
inactive: nilotinib -0.01 | [1] 0.016 | [2] 0.328 | [3] -0.074 | [4] -0.135 | tipifarnib -0.076 | mubritinib 0.036 | [5] -0.032 | [6] -0.035 | [7] -0.236 | [8] -0.083 | entinostat -0.001 | silmitasertib 0.132 | [9] 0.129

MIGA2 (UniProt Q7L4E1)
inactive: [3] -0.074

MICALL1 (UniProt Q8N3F8)
inactive: [11] -0.068 | nilotinib 0.056 | [1] -0.028 | dasatinib 0.014 | [2] -0.045 | [3] -0.08 | [4] 0.038 | tipifarnib 0.051 | mubritinib -0.093 | [5] -0.133 | [6] -0.022 | [7] -0.29 | [8] -0.149 | entinostat -0.07 | vorinostat -0.017 | citarinostat -0.008 | silmitasertib -0.042 | [9] -0.041 | [10] -0.093

MMP15 (UniProt P51511)
inactive: [11] 0.121 | vorinostat -0.073

MOSPD1 isoform 3 (UniProt Q9UJG1)
inactive: [11] 0.065 | nilotinib -0.19 | [1] 0.08 | [2] 0.253 | mubritinib 0.368 | [7] -0.011 | vorinostat 0.068 | silmitasertib 0.195

MICAL2 (UniProt O94851)
inactive: bafetinib 0.023 | [11] -0.066 | dasatinib -0.053 | [3] -0.076 | [4] 0 | mubritinib -0.414 | [6] -0.201 | [7] 0.094 | [8] -0.092 | vorinostat -0.019 | citarinostat 0.047 | silmitasertib 0.186 | [9] 0.052 | [10] -0.232

Reprinted from the entries so far (2 entries):
MMP15 (UniProt P51511)
inactive: [11] 0.121 | vorinostat -0.073

MOSPD1 isoform 3 (UniProt Q9UJG1)
inactive: [11] 0.065 | nilotinib -0.19 | [1] 0.08 | [2] 0.253 | mubritinib 0.368 | [7] -0.011 | vorinostat 0.068 | silmitasertib 0.195

Later entries.

MIER3 isoform 2 (UniProt Q7Z3K6)
inactive: [8] 0.049

MICA (UniProt Q29983)
inactive: bafetinib 0.174 | [11] 0.04 | [4] -0.085 | tipifarnib 0.004 | [5] -0.088 | [6] 0.006 | [8] -0.033 | entinostat 0.031 | vorinostat 0.031

MPHOSPH8 isoform 2 (UniProt Q99549)
inactive: dasatinib -0.025 | [3] -0.019 | [4] -0.116 | tipifarnib 0.01 | mubritinib 0.031 | [5] 0.257 | [6] 0.004 | [7] 0.161 | [8] -0.018 | entinostat -0.191 | silmitasertib -0.083 | [9] 0.189
